Data on eight molecules can be found in paper doi:10.1101/2024.03.18.585503.

Amino acid sequences for entries named in this document (tags omitted).
UniProt P0CX54: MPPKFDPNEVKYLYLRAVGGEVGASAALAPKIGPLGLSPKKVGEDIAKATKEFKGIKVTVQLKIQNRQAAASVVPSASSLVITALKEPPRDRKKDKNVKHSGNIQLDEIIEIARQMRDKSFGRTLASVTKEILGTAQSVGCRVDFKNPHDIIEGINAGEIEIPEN
UniProt P0CX83: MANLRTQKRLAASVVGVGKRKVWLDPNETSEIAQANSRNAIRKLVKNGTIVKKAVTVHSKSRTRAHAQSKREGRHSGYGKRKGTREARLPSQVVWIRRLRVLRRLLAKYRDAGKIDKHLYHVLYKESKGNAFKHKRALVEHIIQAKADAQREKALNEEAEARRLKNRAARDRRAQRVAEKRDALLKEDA
UniProt P0CX53: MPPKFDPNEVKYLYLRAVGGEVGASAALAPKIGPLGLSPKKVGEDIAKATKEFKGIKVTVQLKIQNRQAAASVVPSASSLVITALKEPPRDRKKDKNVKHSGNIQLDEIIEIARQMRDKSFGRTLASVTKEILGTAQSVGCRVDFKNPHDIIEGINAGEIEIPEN
UniProt P0CX82: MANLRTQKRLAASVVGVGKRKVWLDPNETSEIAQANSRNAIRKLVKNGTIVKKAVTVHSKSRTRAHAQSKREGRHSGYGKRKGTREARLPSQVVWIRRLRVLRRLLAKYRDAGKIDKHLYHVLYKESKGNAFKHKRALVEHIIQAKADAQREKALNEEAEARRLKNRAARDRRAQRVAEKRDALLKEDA

Experiment in all cases: affinity purification with mass spectrometry
Test [1] deals with Rpl12b-FLAG (S. cerevisiae) (UniProt P0CX54).
Test [2] deals with T1, Rpl34b-FLAG (S. cerevisiae) (UniProt P40525).
T1 sequence: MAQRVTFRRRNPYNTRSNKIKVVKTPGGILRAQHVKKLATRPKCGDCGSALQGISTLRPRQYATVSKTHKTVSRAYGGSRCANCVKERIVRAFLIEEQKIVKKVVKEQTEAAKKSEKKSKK

Test [3] has as its target Rpl19b-FLAG (S. cerevisiae) (UniProt P0CX83).
Test [4] has as its target T2, Rpl34a-FLAG (S. cerevisiae) (UniProt P87262).
T2 sequence: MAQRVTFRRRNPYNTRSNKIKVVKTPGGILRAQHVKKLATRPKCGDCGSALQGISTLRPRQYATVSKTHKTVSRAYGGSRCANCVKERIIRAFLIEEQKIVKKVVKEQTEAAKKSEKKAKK

Test [5] addresses Rpl12a-FLAG (S. cerevisiae) (UniProt P0CX53).
Test [6] deals with Rpl19a-FLAG (S. cerevisiae) (UniProt P0CX82).
For test [7], the target named is Rpl12a-FLAG (S. cerevisiae), P0CX53. The note with it: remark: other sources report otherwise.

No constants are given. Whether binding was seen depends on the method and setting. Binding seen in cells or lysates may run through a third protein. Here binding means that the protein was enriched with, or labelled near, the bait; the list need not be complete. For some of these results: No binding means not detected with the bait. For some of these results: Where a sequence is shown, tags or fusion partners need not be part of it.

B1: Rpl22b (protein, UniProt P56628 1-122)
chain: MAPNTSRKQKVIKTLTVDVSSPTENGVFDPASYSKYLIDHIKVDGAVGNLGNAIEVTEDGSIVTVVSSAKFSGKYLKYLTKKYLKKNQLRDWIRFVSIRQNQYKLVFYQVTPEDADEEEDDE
For the molecule B1, in test [1], the binding result is on record as “binds”.

B2: Fox2 (enzyme, UniProt Q02207 1-900)
chain: MPGNLSFKDRVVVITGAGGGLGKVYALAYASRGAKVVVNDLGGTLGGSGHNSKAADLVVDEIKKAGGIAVANYDSVNENGEKIIETAIKEFGRVDVLINNAGILRDVSFAKMTEREFASVVDVHLTGGYKLSRAAWPYMRSQKFGRIINTASPAGLFGNFGQANYSAAKMGLVGLAETLAKEGAKYNINVNSIAPLARSRMTENVLPPHILKQLGPEKIVPLVLYLTHESTKVSNSIFELAAGFFGQLRWERSSGQIFNPDPKTYTPEAILNKWKEITDYRDKPFNKTQHPYQLSDYNDLITKAKKLPPNEQGSVKIKSLCNKVVVVTGAGGGLGKSHAIWFARYGAKVVVNDIKDPFSVVEEINKLYGEGTAIPDSHDVVTEAPLIIQTAISKFQRVDILVNNAGILRDKSFLKMKDEEWFAVLKVHLFSTFSLSKAVWPIFTKQKSGFIINTTSTSGIYGNFGQANYAAAKAAILGFSKTIALEGAKRGIIVNVIAPHAETAMTKTIFSEKELSNHFDASQVSPLVVLLASEELQKYSGRRVIGQLFEVGGGWCGQTRWQRSSGYVSIKETIEPEEIKENWNHITDFSRNTINPSSTEESSMATLQAVQKAHSSKELDDGLFKYTTKDCILYNLGLGCTSKELKYTYENDPDFQVLPTFAVIPFMQATATLAMDNLVDNFNYAMLLHGEQYFKLCTPTMPSNGTLKTLAKPLQVLDKNGKAALVVGGFETYDIKTKKLIAYNEGSFFIRGAHVPPEKEVRDGKRAKFAVQNFEVPHGKVPDFEAEISTNKDQAALYRLSGDFNPLHIDPTLAKAVKFPTPILHGLCTLGISAKALFEHYGPYEELKVRFTNVVFPGDTLKVKAWKQGSVVVFQTIDTTRNVIVLDNAAVKLSQAKSKL
Take B2: the binding result in test [1] was “no binding”.

B3: Stm1 (protein, UniProt P39015 1-273)
chain: MSNPFDLLGNDVEDADVVVLPPKEIVKSNTSSKKADVPPPSADPSKARKNRPRPSGNEGAIRDKTAGRRNNRSKDVTDSATTKKSNTRRATDRHSRTGKTDTKKKVNQGWGDDKKELSAEKEAQADAAAEIAEDAAEAEDAGKPKTAQLSLQDYLNQQANNQFNKVPEAKKVELDAERIETAEKEAYVPATKVKNVKSKQLKTKEYLEFDATFVESNTRKNFGDRNNNSRNNFNNRRGGRGARKGNNTANATNSANTVQKNRNIDVSNLPSLA
Regarding B3, the binding result in test [2], in test [1], in test [3], in test [4], in test [5] and in test [6] was “binds” in each case.

B4: Nsa2 (protein, UniProt P40078 1-261)
chain: MPQNDYIERHIKQHGKRLDHEERKRKREARESHKISERAQKLTGWKGKQFAKKRYAEKVSMRKKIKAHEQSKVKGSSKPLDTDGDALPTYLLDREQNNTAKAISSSIKQKRLEKADKFSVPLPKVRGISEEEMFKVIKTGKSRSKSWKRMITKHTFVGEGFTRRPVKMERIIRPSALRQKKANVTHPELGVTVFLPILAVKKNPQSPMYTQLGVLTKGTIIEVNVSELGMVTAGGKVVWGKYAQVTNEPDRDGCVNAVLLV
With B4, in test [1], the binding result was “no binding”.

B5: Mrt4, P33201 1-236 (protein)
chain: MPRSKRSKLVTLAQTDKKGRENKERIFDEVREALDTYRYVWVLHLDDVRTPVLQEIRTSWAGSKLIMGKRKVLQKALGEKREEEYKENLYQLSKLCSGVTGLLFTDEDVNTVKEYFKSYVRSDYSRPNTKAPLTFTIPEGIVYSRGGQIPAEEDVPMIHSLEPTMRNKFEIPTKIKAGKITIDSPYLVCTEGEKLDVRQALILKQFGIAASEFKVKVSAYYDNDSSTVESTNINME
B5: the binding result in test [7] is “no binding”.

B6: Idp1 (enzyme, UniProt P21954 17-428)
chain: FSKIKVKQPVVELDGDEMTRIIWDKIKKKLILPYLDVDLKYYDLSVESRDATSDKITQDAAEAIKKYGVGIKCATITPDEARVKEFNLHKMWKSPNGTIRNILGGTVFREPIVIPRIPRLVPRWEKPIIIGRHAHGDQYKATDTLIPGPGSLELVYKPSDPTTAQPQTLKVYDYKGSGVAMAMYNTDESIEGFAHSSFKLAIDKKLNLFLSTKNTILKKYDGRFKDIFQEVYEAQYKSKFEQLGIHYEHRLIDDMVAQMIKSKGGFIMALKNYDGDVQSDIVAQGFGSLGLMTSILVTPDGKTFESEAAHGTVTRHYRKYQKGEETSTNSIASIFAWSRGLLKRGELDNTPALCKFANILESATLNTVQQDGIMTKDLALACGNNERSAYVTTEEFLDAVEKRLQKEIKSIE
As for B6, the binding result in test [1] is given as “no binding”.

B7: Rpl36a (protein, UniProt P05745 1-100)
chain: MTVKTGIAIGLNKGKKVTSMTPAPKISYKKGAASNRTKFVRSLVREIAGLSPYERRLIDLIRNSGEKRARKVAKKRLGSFTRAKAKVEEMNNIIAASRRH
Take B7: the binding entry in test [2], in test [1], in test [3], in test [4], in test [5] and in test [6] was “binds” throughout.

B8: Rpl17a (protein, UniProt P05740 1-184)
chain: MARYGATSTNPAKSASARGSYLRVSFKNTRETAQAINGWELTKAQKYLEQVLDHQRAIPFRRFNSSIGRTAQGKEFGVTKARWPAKSVKFVQGLLQNAAANAEAKGLDATKLYVSHIQVNQAPKQRRRTYRAHGRINKYESSPSHIELVVTEKEEAVAKAAEKKVVRLTSRQRGRIAAQKRIAA
Take B8: the binding result in test [1] and in test [3] was “binds” each time.
